Source: patent publication US20240142458A1, “FLUORESCENT PROBES FOR QUANTIFICATION OF FREE COPPER” (TECHNISCHE UNIVERSITÄT BERLIN, priority 2020, published 2024)

Test: Time-resolved fluorescence (time-correlated single photon counting) in the presence of CuSO4
Details: for fluorescence lifetime (decay time): CuSO4 10-40 μM (above 8 μM), 10 μM probe; for fluorescence lifetime: up to 8 μM CuSO4, 10 μM probe

O=P(O)(O)c1ccc(-c2c3nc(c(-c4ccc(P(=O)(O)O)cc4)c4ccc([nH]4)c(-c4ccc(P(=O)(O)O)cc4)c4nc(c(-c5ccc(P(=O)(O)O)cc5)c5ccc2[nH]5)C=C4)C=C3)cc1 [p-H8TPPA, 5,10,15,20-Tetrakis [p-phenylphosphonic acid] porphyrin]
fluorescence lifetime (decay time): 1.7 ns | fluorescence lifetime: 8.3 ns

O=P(O)(O)c1cccc(-c2c3nc(c(-c4cccc(P(=O)(O)O)c4)c4ccc([nH]4)c(-c4cccc(P(=O)(O)O)c4)c4nc(c(-c5cccc(P(=O)(O)O)c5)c5ccc2[nH]5)C=C4)C=C3)c1 [m-H8TPPA, 5,10,15,20-tetrakis [m-phenylphosphonic acid] porphyrin]
fluorescence lifetime (decay time): 1.6 ns | fluorescence lifetime: 7.7 ns
